Patent US20220118104A1, “COMPOUNDS COMPRISING CLEAVABLE LINKER AND USES THEREOF” (IntoCell, Inc., priority 2019, published 2022)
Some results were stated once for a whole list of compounds, not compound by compound.

Legend:
[1] = Mouse plasma stability test; assay type: in vitro ADME; details: 300 μM, 37° C., up to 7 days, HPLC
[2] = Human plasma stability test; assay type: in vitro ADME; details: 300 μM, 37° C., up to 7 days, HPLC

In the case of `C[N+]1(Cc2ccc(OS(=O)(=O)Cc3ccc(OC4O[C@H](CO)[C@H](O)[C@H](O)[C@H]4O)cc3)cc2)CCCC[C@@H]1C(=O)Nc1ccccc1` (some centres unmarked) [Compound B-1], the “compound detected and quantitated in mouse plasma” value [1] was over 95% and the “compound detected and quantitated in human plasma” value [2] was over 95%.
